Numbering of substitutions follows the chain as printed. In names and notes the source's numbering stands. Results are given in words; binding and its absence hold for the method and conditions named. Binding can be weak; no strength is given. Tags and fused reporters may be left off the sequences shown.
B1: ScParB^G140S;R142A, bacterial two-hybrid fusion (protein, UniProt Q9RFM2 1-368)
chain: MSERRRGLGRGLGALIPNAPTEKSVASAALGSAASAAPGAMPLLPNERGVAAAKVATLQHVSRETEELTAPQGVEGLRPPMGAHFAEVPLDAITPNPKQPRKDFDDDALAELVTSIREVGLLQPVVVRPTEPGRYELIMSEARFRACRELELDAIPAIVRATEDEKLLLDALLENLHRAQLNPLEEAFAYDQLLKDFNCTHDQLADRIGRSRPQVSNTLRLLKLSPKVQNRVAAGVLSAGHARALLSVDDPEEQDRLAHRIVAEGLSVRSVEEIVTLMGSRPQKPQRAKGPRAGSLVSPALSDLATRLSDRFETRVKVDLGQKKGKITVEFASMDDLERILGSLAPGEGPVLQKGLLEGEDEDGDAES
B2: S. coelicolor ParB (ScParB), wild type, bacterial two-hybrid fusion (protein, UniProt Q9RFM2 1-368)
chain: B1 chain with S140G, A142R

Target: S. coelicolor ParA (ScParA), bacterial two-hybrid fusion (S. coelicolor)
Assay: two-hybrid; bacterial two-hybrid (BACTH): pUT18C and pKT25 derivatives cotransformed into E. coli BTH101; blue colonies on LB agar with X-gal and 0.5 mM IPTG, 30°C, and β-galactosidase activity (Miller units)

| Binder | binding |
| --- | --- |
| B1 | binds |
| B2 | binds |

Reference: publication PMC12207404, “Significance of the CTP-binding motif for the interactions of S. coelicolor ParB with DNA, chromosome segregation, and sporogenic hyphal growth” (Nucleic Acids Research, 2025)
